Data as given in PubChem BioAssay AID1224830 (NIAID, 2016).
The whole screen tested about 18,000 reagents; this is a random part of them. Of all reagents, about 2,900 (16%) got an active call. 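Calls are made per well; low scores hint the gene aids the LPS response, high scores that it dampens it.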 Repeated entries: four replicate wells of each siRNA pool.

Test: 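Genes whose knock-down alters the TNF-alpha reporter response to LPS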 (primary screen)
Cells: human THP-1 monocytic leukaemia cells, TNF dual-luciferase reporter clone, PMA-differentiated to macrophage-like cells
Knock-down reagent: siRNA pool against human genes, 50 nM
Timing: LPS for 4 h, given about 3 days after siRNA transfection
Treatment: bacterial LPS (TLR4 ligand), 10 ng/ml
Detection: 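Ratio of firefly to renilla light, scaled to the plate median and expressed as a robust z-score per replicate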
Scale: TNF reporter robust z-score: higher = stronger TNF reporter response to LPS
Rule for the call: 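a well is active when its z-score exceeds 2.8 or falls below -1.5; control wells carry no call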

PKHD1L1 — TNF reporter robust z-score = -0.19; outcome = inactive
PKHD1L1 — TNF reporter robust z-score = -0.47; outcome = inactive
PKHD1L1 — TNF reporter robust z-score = 0.11; outcome = inactive
PKHD1L1 — TNF reporter robust z-score = -0.51; outcome = inactive
HMOX2 — TNF reporter robust z-score = -0.23; outcome = inactive
HMOX2 — TNF reporter robust z-score = 0.91; outcome = inactive
HMOX2 — TNF reporter robust z-score = 1; outcome = inactive
HMOX2 — TNF reporter robust z-score = 0.81; outcome = inactive
ZC2HC1A — TNF reporter robust z-score = 1.86; outcome = inactive
ZC2HC1A — TNF reporter robust z-score = 1.04; outcome = inactive
ZC2HC1A — TNF reporter robust z-score = -1.28; outcome = inactive
ZC2HC1A — TNF reporter robust z-score = -0.4; outcome = inactive

2 entries already listed, sorted by “TNF reporter robust z-score”, ascending.
HMOX2 — TNF reporter robust z-score = 0.91; outcome = inactive
HMOX2 — TNF reporter robust z-score = 1; outcome = inactive

More records follow:
SLC25A36 — TNF reporter robust z-score = -0.7; outcome = inactive
SLC25A36 — TNF reporter robust z-score = 0.96; outcome = inactive
SLC25A36 — TNF reporter robust z-score = -0.45; outcome = inactive
SLC25A36 — TNF reporter robust z-score = -0.21; outcome = inactive
BCAM — TNF reporter robust z-score = 1.32; outcome = inactive
BCAM — TNF reporter robust z-score = 1.96; outcome = inactive
BCAM — TNF reporter robust z-score = 1.31; outcome = inactive
BCAM — TNF reporter robust z-score = 0.89; outcome = inactive
TM9SF3 — TNF reporter robust z-score = -0.87; outcome = inactive
TM9SF3 — TNF reporter robust z-score = -0.81; outcome = inactive
TM9SF3 — TNF reporter robust z-score = 0.08; outcome = inactive
TM9SF3 — TNF reporter robust z-score = 0.45; outcome = inactive
TMEM163 — TNF reporter robust z-score = 3.52; outcome = active
TMEM163 — TNF reporter robust z-score = 1; outcome = inactive
TMEM163 — TNF reporter robust z-score = 0.66; outcome = inactive
TMEM163 — TNF reporter robust z-score = 0.76; outcome = inactive
NOD1 — TNF reporter robust z-score = 0.15; outcome = inactive
NOD1 — TNF reporter robust z-score = 1.56; outcome = inactive
NOD1 — TNF reporter robust z-score = 1.12; outcome = inactive
NOD1 — TNF reporter robust z-score = 0.12; outcome = inactive
